Some of the results follow.
Biological target: T1, OsSMF1 (Oryza sativa, UniProt Q6ZLB0 1-436)
T1 sequence: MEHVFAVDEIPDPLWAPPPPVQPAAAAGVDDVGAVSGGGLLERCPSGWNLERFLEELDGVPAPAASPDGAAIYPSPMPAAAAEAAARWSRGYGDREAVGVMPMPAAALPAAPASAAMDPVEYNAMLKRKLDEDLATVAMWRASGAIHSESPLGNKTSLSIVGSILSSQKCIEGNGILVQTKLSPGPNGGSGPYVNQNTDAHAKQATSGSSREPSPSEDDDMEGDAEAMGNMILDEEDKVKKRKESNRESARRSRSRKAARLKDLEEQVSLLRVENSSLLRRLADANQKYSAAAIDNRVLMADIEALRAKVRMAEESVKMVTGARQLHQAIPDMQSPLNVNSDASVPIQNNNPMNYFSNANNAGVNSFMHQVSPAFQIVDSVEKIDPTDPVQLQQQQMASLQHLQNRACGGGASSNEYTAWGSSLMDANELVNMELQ
Assay: protein-binding microarray (RPBM); PBS, 2% BSA, 51.3 ng/ul salmon testes DNA, 50 uM zinc acetate, 200 nM TF, 25 C, 1 h; high values mean tight binding
Conditions: protein: recombinant; tags: N-terminal polyhistidine and DsRed monomer fusion (pET32a); chain copies: 2; label: CyDye5-dUTP incorporated in the synthesized complementary strand; 3' TTTTT single-stranded linker to array surface; dsDNA, one strand shown
How it was run: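 Binding signal is defined as the fluorescence intensity of each feature in arbitrary units, read on an Axon 4000B scanner. Transcription factors with N-terminal polyhistidine and DsRed fusions came from E. coli BL21-CodonPlus and were purified on Ni–NTA. They were incubated at 200 nM for 1 h at 25 °C on a custom Agilent array that had been made double-stranded with Cy5-dUTP, with 50 µM zinc acetate present, and the array was washed.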

Sequence	binding signal
GGCGGCCAGATCCGGGGCTGGGGAGGCGACGGCGGCGGGGCGGAGTCACCTAGTGCAG	4020 fluorescence intensity (a.u.)
GTGTGAGTCGAGTCGGTGCTGTGCTGGAGTGCTGGCAACGCGGAGTCACCTAGTGCAG	3870 fluorescence intensity (a.u.)
GTACCATGGGTTTGCGTGAACCCGCACACGAACCACGTGGCGGAGTCACCTAGTGCAG	9170 fluorescence intensity (a.u.)
TTTCTGACATGTCACTTGTTTATGTATTAGTTGCATTGTACGGAGTCACCTAGTGCAG	5270 fluorescence intensity (a.u.)
CTTGGCACCATTTCACATCAGTAATTCCCCATCACACGCACGGAGTCACCTAGTGCAG	25600 fluorescence intensity (a.u.)
GACGAATCTTTGCTGAGTAGGAGGCAGCAACCACTATGAGCGGAGTCACCTAGTGCAG	4660 fluorescence intensity (a.u.)
TTGAAGCAAATTTTAAGATATCATTTTATCCTGGCAAGGTCGGAGTCACCTAGTGCAG	3270 fluorescence intensity (a.u.)
GCCGCGCCATGACGACGGGATGTCGCCTAGGTGGCCATCACGGAGTCACCTAGTGCAG	3990 fluorescence intensity (a.u.)
CCCTACACATCTCTCTTCCACCTAGTTTACTTCGACCTGGCGGAGTCACCTAGTGCAG	3560 fluorescence intensity (a.u.)
CACCGCACCACCACCACCACGCACGCAAGCACGCCTCTCGCGGAGTCACCTAGTGCAG	5320 fluorescence intensity (a.u.)
CAGATAGGCTAATAGGCATCGGAGGAGCGGGAGGACCTCTCGGAGTCACCTAGTGCAG	37400 fluorescence intensity (a.u.)
TCTAAATTACTGTTTAGTCGATGACTCGATGTAATACATTCGGAGTCACCTAGTGCAG	4400 fluorescence intensity (a.u.)
CCACGCCTCCATCCCTCTTCGTCGGCGTCTCCGATGGATGCGGAGTCACCTAGTGCAG	3330 fluorescence intensity (a.u.)
AGCACGCCGCAGCACTGCATCAGCACGGCCGCCACCACCACGGAGTCACCTAGTGCAG	4060 fluorescence intensity (a.u.)
CCCTGCTGTGACTGAGCTACATACTACCAGAGCTAAAGCACGGAGTCACCTAGTGCAG	34100 fluorescence intensity (a.u.)
TCCAGCTGCTGCATCCACCTCACTGCCGTCGCCGCCGCCGCGGAGTCACCTAGTGCAG	3310 fluorescence intensity (a.u.)
AGCTCCATGGTGGTAAAACCATTGCATATGCGTTGTCCTCCGGAGTCACCTAGTGCAG	4230 fluorescence intensity (a.u.)
GCCACCCGCCTCGCGGAGTCACGGGCTCGAGCTCCACCACCGGAGTCACCTAGTGCAG	4510 fluorescence intensity (a.u.)
CATCGAGGGCAGCCACAAGCTGGAGCACACCGAGCAGTTCCGGAGTCACCTAGTGCAG	24000 fluorescence intensity (a.u.)
GGTATGCATAGCTGTGGCTAGGGTGCAAGCGAGGATGGTACGGAGTCACCTAGTGCAG	3610 fluorescence intensity (a.u.)
GTCCTACATGGCTGCTGAGTCAGCGTGGGACCCATGTGGACGGAGTCACCTAGTGCAG	18000 fluorescence intensity (a.u.)

Sequence	binding signal
AACACAGAAGTAGGGTATTACGCTCCACAGCGGCCCGAACCGGAGTCACCTAGTGCAG	3880 fluorescence intensity (a.u.)
CAAATTATGACACAGTTGATATTCCTTGTTTGAAAATTGTCGGAGTCACCTAGTGCAG	3470 fluorescence intensity (a.u.)
AAACCACCCATTACGTATATGCTTAACTGAATCAACATGTCGGAGTCACCTAGTGCAG	3390 fluorescence intensity (a.u.)
GTGTGTGTATGACAGGTGGGACCATATATTAATAGTGTAGCGGAGTCACCTAGTGCAG	3480 fluorescence intensity (a.u.)
AAGTTTGATTTTGAACACGGTGGCAGCAAAGTGACACGAACGGAGTCACCTAGTGCAG	4600 fluorescence intensity (a.u.)
ACGGCGGATGCTGGATATCTTACACGTAGACTTGTTGAAGCGGAGTCACCTAGTGCAG	9320 fluorescence intensity (a.u.)
CATATTTATCCGATGAGATCAATCGACAAGTCAGTAACCACGGAGTCACCTAGTGCAG	3890 fluorescence intensity (a.u.)
AGAGAAGTTCAGTCTCTGAATGTGTGTTGCCAATTGCTGACGGAGTCACCTAGTGCAG	3190 fluorescence intensity (a.u.)
CAGATCTCGCCTTCCGATCACGCCGCGCGATGCGGGCCGTCGGAGTCACCTAGTGCAG	14500 fluorescence intensity (a.u.)
GAGAGCGAACGGCCGTCTGCCACGTCATTTTCGCCGCCCTCGGAGTCACCTAGTGCAG	17000 fluorescence intensity (a.u.)
GCGCCGCACGGTCGTCATCATCACTGGGGTCGTCTTCGCACGGAGTCACCTAGTGCAG	4070 fluorescence intensity (a.u.)
ACACGCACACATGCAGATATGCTGCCTGCCTGCCTCGTCACGGAGTCACCTAGTGCAG	4200 fluorescence intensity (a.u.)
GTATTCAGCTGCATGAGGATCATCACAAGATTTGGAGGACCGGAGTCACCTAGTGCAG	3530 fluorescence intensity (a.u.)
AGAGCCAAGAGAGAGGGAGACGCGTCACCACCCTTCCCTTCGGAGTCACCTAGTGCAG	9080 fluorescence intensity (a.u.)
GTGCAAGTTTTGTCACTTCTATTGGCATGGAGTCGTCTCTCGGAGTCACCTAGTGCAG	4180 fluorescence intensity (a.u.)
ATATAAATTTTGGCTCCTAATTGACATCAATCCAAACACACGGAGTCACCTAGTGCAG	3570 fluorescence intensity (a.u.)
TTACGGCGTAAGCCGGCTTACGACGTAAGCCAGAAGGTCCCGGAGTCACCTAGTGCAG	3380 fluorescence intensity (a.u.)
TGGACTTTGAATCCATCCACCTCATCCTCCTCCCGCGTACCGGAGTCACCTAGTGCAG	6720 fluorescence intensity (a.u.)
TGGGAGCGCTGGGGCTGGCCATCTCTCCTTGCCTGCTGTGCGGAGTCACCTAGTGCAG	29400 fluorescence intensity (a.u.)
CCTCTCGTCTCGCTCGTCGCGGCCACCTCTCTTTCTCTCTCGGAGTCACCTAGTGCAG	30500 fluorescence intensity (a.u.)
CGAGACTGACAAGGCATTCCAGACACTTAAACAAGCACTGCGGAGTCACCTAGTGCAG	3350 fluorescence intensity (a.u.)

Three neighbouring records already listed:
Sequence	binding signal
GTACCATGGGTTTGCGTGAACCCGCACACGAACCACGTGGCGGAGTCACCTAGTGCAG	9170 fluorescence intensity (a.u.)
TTTCTGACATGTCACTTGTTTATGTATTAGTTGCATTGTACGGAGTCACCTAGTGCAG	5270 fluorescence intensity (a.u.)
CTTGGCACCATTTCACATCAGTAATTCCCCATCACACGCACGGAGTCACCTAGTGCAG	25600 fluorescence intensity (a.u.)

— PMC7819943, “Rice protein-binding microarrays: a tool to detect cis-acting elements near promoter regions in rice”
